In article PMC9992512:
No constants are given. Whether binding was seen depends on the method and setting. Binding seen in cells or lysates may run through a third protein. A yes stands for co-enrichment or nearness to the bait. Other partners may have been found. Each block holds one molecule with its values, some of them ahead of it.

Chains of the proteins cited; added tags and fusions are not shown.
UniProt Q02085: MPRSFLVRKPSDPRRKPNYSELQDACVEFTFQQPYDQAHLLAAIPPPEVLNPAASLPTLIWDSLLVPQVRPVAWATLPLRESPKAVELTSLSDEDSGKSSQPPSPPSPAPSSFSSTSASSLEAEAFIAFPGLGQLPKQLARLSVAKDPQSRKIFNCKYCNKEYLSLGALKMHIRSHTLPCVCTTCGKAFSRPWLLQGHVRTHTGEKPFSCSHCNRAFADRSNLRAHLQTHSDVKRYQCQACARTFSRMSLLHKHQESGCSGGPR
UniProt Q62432: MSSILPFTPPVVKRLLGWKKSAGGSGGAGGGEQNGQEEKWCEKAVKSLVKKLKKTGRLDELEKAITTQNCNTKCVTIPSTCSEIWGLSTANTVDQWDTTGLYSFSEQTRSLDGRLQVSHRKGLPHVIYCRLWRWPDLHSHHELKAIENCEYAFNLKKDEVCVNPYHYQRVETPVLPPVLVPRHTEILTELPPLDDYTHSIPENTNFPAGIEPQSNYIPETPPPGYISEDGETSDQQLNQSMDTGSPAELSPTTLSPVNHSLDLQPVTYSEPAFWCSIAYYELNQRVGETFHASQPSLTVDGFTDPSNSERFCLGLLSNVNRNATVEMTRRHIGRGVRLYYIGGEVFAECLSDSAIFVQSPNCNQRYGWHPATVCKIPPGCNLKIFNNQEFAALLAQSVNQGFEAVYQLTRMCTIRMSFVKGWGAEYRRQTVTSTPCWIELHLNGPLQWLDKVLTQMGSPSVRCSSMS

Biological target: SNAIL (mouse) (UniProt Q02085)
Experiment: affinity purification with mass spectrometry; ChIP-MS: PKras^G12D/+;Snail^KI/+ PDAC cells (P144) fixed in 1% formaldehyde, chromatin sonicated to about 500 bp; 1 mg extract immunoprecipitated with anti-Snail rabbit mAb or IgG control overnight at 4 °C, protein A + G magnetic beads, low salt (140 mM NaCl) and high salt (500 mM NaCl) washes; label-free LC-MS/MS

- binding: binds
Molecule: SMAD2 (from UniProt Q62432 1-467)

- binding: binds
B1: NFKB2 (protein, UniProt Q9WTK5 1-899)
chain: MDNCYDPGLDGIPEYDDFEFSPSIVEPKDPAPETADGPYLVIVEQPKQRGFRFRYGCEGPSHGGLPGASSEKGRKTYPTVKICNYEGPAKIEVDLVTHSDPPRAHAHSLVGKQCSELGVCAVSVGPKDMTAQFNNLGVLHVTKKNMMEIMIQKLQRQRLRSKPQGLTEAERRELEQEAKELKKVMDLSIVRLRFSAFLRASDGSFSLPLKPVISQPIHDSKSPGASNLKISRMDKTAGSVRGGDEVYLLCDKVQKDDIEVRFYEDDENGWQAFGDFSPTDVHKQYAIVFRTPPYHKMKIERPVTVFLQLKRKRGGDVSDSKQFTYYPLVEDKEEVQRKRRKALPTFSQPFGGGSHMGGGSGGSAGGYGGAGGGGSLGFFSSSLAYNPYQSGAAPMGCYPGGGGGAQMAGSRRDTDAGEGAEEPRTPPEAPQGEPQALDTLQRAREYNARLFGLAQRSARALLDYGVTADARALLAGQRHLLMAQDENGDTPLHLAIIHGQTGVIEQIAHVIYHAQYLGVINLTNHLHQTPLHLAVITGQTRVVSFLLQVGADPTLLDRHGDSALHLALRAGAAAPELLQALLRSGAHAVPQILHMPDFEGLYPVHLAVHARSPECLDLLVDCGAEVEAPERQGGRTALHLATEMEELGLVTHLVTKLHANVNARTFAGNTPLHLAAGLGSPTLTRLLLKAGADIHAENEEPLCPLPSPSTSGSDSDSEGPERDTQRNFRGHTPLDLTCSTKVKTLLLNAAQNTTEPPLAPPSPAGPGLSLGDAALQNLEQLLDGPEAQGSWAELAERLGLRSLVDTYRKTPSPSGSLLRSYKLAGGDLVGLLEALSDMGLHEGVRLLKGPETRDKLPSTEVKEDSAYGSQSVEQEAEKLCPPPEPPGGLCHGHPQPQVH
